# Measurements from PMC7819943, “Rice protein-binding microarrays: a tool to detect cis-acting elements near promoter regions in rice”.
# Amino acid sequences for entries named in this document (tags omitted).
# UniProt Q0JBA9, entry or part of it: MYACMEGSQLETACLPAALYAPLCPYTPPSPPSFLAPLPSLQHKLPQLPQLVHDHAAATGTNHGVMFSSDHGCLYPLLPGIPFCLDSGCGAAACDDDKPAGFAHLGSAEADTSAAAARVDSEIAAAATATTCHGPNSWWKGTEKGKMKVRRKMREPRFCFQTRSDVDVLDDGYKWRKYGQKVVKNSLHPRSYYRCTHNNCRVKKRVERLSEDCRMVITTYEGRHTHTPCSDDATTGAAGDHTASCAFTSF
# Some of the results follow.
# Target: OsWRKY34 (Oryza sativa, UniProt Q0JBA9 1-250)
# Experiment: protein-binding microarray (RPBM); PBS, 2% BSA, 51.3 ng/ul salmon testes DNA, 50 uM zinc acetate, 200 nM TF, 25 C, 1 h; high values mean tight binding
# Conditions: protein: recombinant; tags: N-terminal polyhistidine and DsRed monomer fusion (pET32a); label: CyDye5-dUTP incorporated in the synthesized complementary strand; 3' TTTTT single-stranded linker to array surface; dsDNA, one strand shown
# How it was run: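 For the binding signal, per-feature fluorescence intensity was read in arbitrary units on an Axon 4000B scanner. Before scanning, a 2% BSA-blocked custom Agilent array made double-stranded with Cy5-dUTP was washed after 1 h at 25 °C with 200 nM protein and 50 µM zinc acetate. The proteins were Ni–NTA-purified transcription factors with N-terminal polyhistidine and DsRed fusions, expressed in E. coli BL21-CodonPlus.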
row,Sequence,binding signal
1,ACATTTCTCTCTATTTTTCCTAGCAGATAAACGCAATGTACGGAGTCACCTAGTGCAG,10200 fluorescence intensity (a.u.)
2,CGCACGGTTGTTCTCGCCATGATCCTCCTTGCCGCTGTCACGGAGTCACCTAGTGCAG,8780 fluorescence intensity (a.u.)
3,TTTCTCCTCACCAAGCTGACCACTCTCTGGAAGCATCAGCCGGAGTCACCTAGTGCAG,8500 fluorescence intensity (a.u.)
4,GCCAAGCTCGCCAATTCGCACATGCCTCCATTGTCACACACGGAGTCACCTAGTGCAG,8870 fluorescence intensity (a.u.)
5,GATTTTTTTTTCTTACTGTTTTTGCAGGGGCTGGGCATGACGGAGTCACCTAGTGCAG,11400 fluorescence intensity (a.u.)
6,CCTCCTCCTCACGCCACTGTCGTCGTCGTGTTCCTCTTTCCGGAGTCACCTAGTGCAG,8800 fluorescence intensity (a.u.)
7,TACATAAACTTTCAATTTTTTCCTTCAAACTTACAATTTTCGGAGTCACCTAGTGCAG,8670 fluorescence intensity (a.u.)
8,GCAGGGGCGGGCCCACAATGATTCATGGGTATTCAAATGACGGAGTCACCTAGTGCAG,9020 fluorescence intensity (a.u.)
9,TCTGTTCTAAAACCACAGACCATCCTCTTTTATCATTTCACGGAGTCACCTAGTGCAG,8340 fluorescence intensity (a.u.)
10,TTGCATCAGGATCACTCTCGTCTTCTTCGCTGTTGTTTTGCGGAGTCACCTAGTGCAG,13900 fluorescence intensity (a.u.)
11,CCCGCACGCCACCACCTCACCCACCTATCCACGTCAACTCCGGAGTCACCTAGTGCAG,12100 fluorescence intensity (a.u.)
12,CAGTTAGGGGTGGGCATTCGGTCAGACCGAAAAATTCGGTCGGAGTCACCTAGTGCAG,15500 fluorescence intensity (a.u.)
13,CGTTTTTCTATTGTGTTATCTCTGACCGCTGGAAATTCAACGGAGTCACCTAGTGCAG,9220 fluorescence intensity (a.u.)
14,TATTGGTGTTTGGTTGGTCTATACAGGAAGTGGTAGTACACGGAGTCACCTAGTGCAG,8830 fluorescence intensity (a.u.)
15,CGGGCTCTGTGTGATCTTAGCCGCTCCGCCGCCACTCACTCGGAGTCACCTAGTGCAG,8270 fluorescence intensity (a.u.)
16,GAGCACCCATGCGGTATTGAATGTGTATCTTTTTTTTACACGGAGTCACCTAGTGCAG,9190 fluorescence intensity (a.u.)
17,CCATCGTTTCTCCCCGACGCCCTCGCCATCCTCCTCGCCACGGAGTCACCTAGTGCAG,10500 fluorescence intensity (a.u.)
18,GAGTGGTTTTTCTTTTACTTTCTCTTTTCCCCTTTTCAATCGGAGTCACCTAGTGCAG,12300 fluorescence intensity (a.u.)
19,ATCTCTCTAGCTCCTTGTATCGGGCAACACATTCCTTGATCGGAGTCACCTAGTGCAG,9660 fluorescence intensity (a.u.)
20,CCTTGATCGTATGCTTCTTACCCATAGCGCTTGTGATCACCGGAGTCACCTAGTGCAG,11900 fluorescence intensity (a.u.)
21,CGTTTTTTTTTCAAAATTTTGACCACTAATAGCTTCTCAACGGAGTCACCTAGTGCAG,10300 fluorescence intensity (a.u.)

row,Sequence,binding signal
1,CATTGGTAATTTTGTATAGTGCTTCTATATGTTTAGATTGCGGAGTCACCTAGTGCAG,8970 fluorescence intensity (a.u.)
2,GGGTTTAAGGGTTGGTTTGGTTTATGGTCTAGATAGGTCTCGGAGTCACCTAGTGCAG,10100 fluorescence intensity (a.u.)
3,TCCACAACTGATTTTATTCCGACTTGTTTTTTTTTCTTTTCGGAGTCACCTAGTGCAG,10800 fluorescence intensity (a.u.)
4,GATTATTTTTTTTCCAGATTTTCCTGTTTCGCTTTAACTTCGGAGTCACCTAGTGCAG,9920 fluorescence intensity (a.u.)
5,GTGTGCGCTTTCTGATTCTGTCGGGTTCCTTTCAGATGCACGGAGTCACCTAGTGCAG,10100 fluorescence intensity (a.u.)
6,CCACCTATAAATATTGCATCGATCAACTCAAGTTGTCATCCGGAGTCACCTAGTGCAG,8420 fluorescence intensity (a.u.)
7,TAAATACGCCCTCGCCGTCTCCTCGCCGACCTCTCTCCGTCGGAGTCACCTAGTGCAG,8100 fluorescence intensity (a.u.)
8,CCGCCGTCGTTCCGCCCACAGCTGCGCTCACCTACCGCCGCGGAGTCACCTAGTGCAG,8650 fluorescence intensity (a.u.)
9,ACTATCAGGTCTTGAAATCATTTATTGCTCCTTCTGAATTCGGAGTCACCTAGTGCAG,8790 fluorescence intensity (a.u.)
10,TGCCAACACTTTCTGTTCCCAACATGTATTATTAGAACACCGGAGTCACCTAGTGCAG,9300 fluorescence intensity (a.u.)
11,TTGTCCGTCAACTTGGCTTGATAGTGTTTATTCTAATATTCGGAGTCACCTAGTGCAG,10700 fluorescence intensity (a.u.)
12,AATTTTCTCTACATACGCATCCGATGACGTTAGAACCATACGGAGTCACCTAGTGCAG,8080 fluorescence intensity (a.u.)
13,CGAAAAGTCAACGGCGTTATAATGGAGGGAGTATTTTTTTCGGAGTCACCTAGTGCAG,10900 fluorescence intensity (a.u.)
14,TTGGTCCACGTGCTTTTCTGTTGTTTTACATACTCTGGCCCGGAGTCACCTAGTGCAG,9830 fluorescence intensity (a.u.)
15,AGTTCATCTACCTCTCTCCTTCACTTTACTCTCTCTCTCTCGGAGTCACCTAGTGCAG,10500 fluorescence intensity (a.u.)
16,GTTTATTTCTCTTGATTTATTTAATTGGTTTAACTTCTTTCGGAGTCACCTAGTGCAG,8030 fluorescence intensity (a.u.)
17,TCTTGTATTCCTTTTCACTAATGTAGATACACATTTATCCCGGAGTCACCTAGTGCAG,10000 fluorescence intensity (a.u.)
18,GTGTATATAATCGACTAACTTCAGTAATCCTTCTGTTTCTCGGAGTCACCTAGTGCAG,9420 fluorescence intensity (a.u.)
19,ATAAAATATTTTTTGTGTTGTTGTTTTTAATATAAATTATCGGAGTCACCTAGTGCAG,9090 fluorescence intensity (a.u.)
20,AGTCTTTTTTCATCACATTAACCTATTATACACACATAACCGGAGTCACCTAGTGCAG,9110 fluorescence intensity (a.u.)
21,CCTTCGCGCCGCCGCCTGCTACTCCCCTGCGTCGCGTCGCCGGAGTCACCTAGTGCAG,8500 fluorescence intensity (a.u.)

# Two entries picked at random from the list so far, as already listed:
row,Sequence,binding signal
11,TTGTCCGTCAACTTGGCTTGATAGTGTTTATTCTAATATTCGGAGTCACCTAGTGCAG,10700 fluorescence intensity (a.u.)
21,CCTTCGCGCCGCCGCCTGCTACTCCCCTGCGTCGCGTCGCCGGAGTCACCTAGTGCAG,8500 fluorescence intensity (a.u.)
